Test [1] addresses GFP-BirA-Cdc42 (wild type) (UniProt P60953). As to the kind of experiment: proximity labelling; SILAC BioID in U2OS cell lines expressing GFP-BirA-Cdc42 (wild type); hits: SILAC enrichment >3.
In test [2] the target is PAK4-BirA*-GFP (human) (UniProt O96013). As to the kind of experiment: proximity labelling; SILAC BioID in stable U2OS cells expressing PAK4-BirA*-GFP against GFP-BirA* control cells; 100 μM biotin for 5 h; biotinylated proteins captured on Neutravidin beads, washed with 1% SDS, identified by LC-MS/MS; hits: SILAC ratio >3.0, two independent experiments.
For test [3] the target is unchanged. As to the kind of experiment: affinity purification with mass spectrometry; GFP-trap Sepharose co-immunoprecipitation of PAK4-BirA-GFP from non-ionic detergent solubilized U2OS lysates, SILAC normalization to GFP-BirA control.

Amino acid sequences for entries named in this document (tags omitted). A change or cut given only in a name is not applied to a line headed by its entry.
UniProt P60953: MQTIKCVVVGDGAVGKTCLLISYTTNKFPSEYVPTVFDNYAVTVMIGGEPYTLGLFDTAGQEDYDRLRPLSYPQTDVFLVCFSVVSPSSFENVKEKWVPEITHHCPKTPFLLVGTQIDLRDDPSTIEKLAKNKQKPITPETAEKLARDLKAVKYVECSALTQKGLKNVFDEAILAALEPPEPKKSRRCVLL
UniProt O96013: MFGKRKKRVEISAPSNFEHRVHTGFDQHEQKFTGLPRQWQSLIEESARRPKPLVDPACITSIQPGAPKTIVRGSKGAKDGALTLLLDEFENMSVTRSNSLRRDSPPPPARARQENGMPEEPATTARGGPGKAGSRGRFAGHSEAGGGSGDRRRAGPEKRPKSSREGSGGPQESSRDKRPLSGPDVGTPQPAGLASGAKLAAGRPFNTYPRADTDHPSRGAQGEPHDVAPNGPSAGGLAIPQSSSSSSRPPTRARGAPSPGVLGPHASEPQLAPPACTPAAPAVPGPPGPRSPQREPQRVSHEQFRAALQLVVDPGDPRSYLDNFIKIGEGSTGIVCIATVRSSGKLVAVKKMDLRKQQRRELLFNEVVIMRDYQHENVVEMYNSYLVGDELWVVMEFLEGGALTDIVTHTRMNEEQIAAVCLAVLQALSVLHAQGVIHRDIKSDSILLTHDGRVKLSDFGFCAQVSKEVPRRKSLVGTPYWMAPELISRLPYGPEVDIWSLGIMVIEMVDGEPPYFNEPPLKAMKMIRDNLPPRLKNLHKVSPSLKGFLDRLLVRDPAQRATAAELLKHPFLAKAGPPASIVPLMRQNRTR
UniProt P12830: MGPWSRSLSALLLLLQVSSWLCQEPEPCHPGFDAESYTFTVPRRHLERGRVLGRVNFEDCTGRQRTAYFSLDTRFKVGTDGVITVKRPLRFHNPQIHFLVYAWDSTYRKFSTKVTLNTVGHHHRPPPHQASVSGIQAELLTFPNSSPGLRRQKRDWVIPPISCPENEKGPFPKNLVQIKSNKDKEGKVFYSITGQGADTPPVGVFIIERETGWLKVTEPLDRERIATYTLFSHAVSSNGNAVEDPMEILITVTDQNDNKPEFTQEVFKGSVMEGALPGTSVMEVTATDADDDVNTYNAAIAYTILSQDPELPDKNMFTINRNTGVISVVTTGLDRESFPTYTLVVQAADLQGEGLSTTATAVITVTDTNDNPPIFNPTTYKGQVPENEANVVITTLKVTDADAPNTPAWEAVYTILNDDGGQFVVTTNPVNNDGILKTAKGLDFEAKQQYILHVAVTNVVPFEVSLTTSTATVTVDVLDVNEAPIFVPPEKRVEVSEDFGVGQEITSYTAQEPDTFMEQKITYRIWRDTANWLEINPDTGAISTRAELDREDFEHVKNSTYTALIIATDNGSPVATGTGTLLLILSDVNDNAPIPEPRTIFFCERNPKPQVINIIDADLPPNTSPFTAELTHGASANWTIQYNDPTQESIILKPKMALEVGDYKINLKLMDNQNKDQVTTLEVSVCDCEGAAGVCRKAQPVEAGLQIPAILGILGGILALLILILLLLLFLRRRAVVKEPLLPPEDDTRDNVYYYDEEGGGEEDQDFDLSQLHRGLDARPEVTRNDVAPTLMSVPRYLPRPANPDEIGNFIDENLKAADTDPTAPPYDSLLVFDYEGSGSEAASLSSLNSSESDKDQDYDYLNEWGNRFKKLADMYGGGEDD
UniProt Q9NQU5: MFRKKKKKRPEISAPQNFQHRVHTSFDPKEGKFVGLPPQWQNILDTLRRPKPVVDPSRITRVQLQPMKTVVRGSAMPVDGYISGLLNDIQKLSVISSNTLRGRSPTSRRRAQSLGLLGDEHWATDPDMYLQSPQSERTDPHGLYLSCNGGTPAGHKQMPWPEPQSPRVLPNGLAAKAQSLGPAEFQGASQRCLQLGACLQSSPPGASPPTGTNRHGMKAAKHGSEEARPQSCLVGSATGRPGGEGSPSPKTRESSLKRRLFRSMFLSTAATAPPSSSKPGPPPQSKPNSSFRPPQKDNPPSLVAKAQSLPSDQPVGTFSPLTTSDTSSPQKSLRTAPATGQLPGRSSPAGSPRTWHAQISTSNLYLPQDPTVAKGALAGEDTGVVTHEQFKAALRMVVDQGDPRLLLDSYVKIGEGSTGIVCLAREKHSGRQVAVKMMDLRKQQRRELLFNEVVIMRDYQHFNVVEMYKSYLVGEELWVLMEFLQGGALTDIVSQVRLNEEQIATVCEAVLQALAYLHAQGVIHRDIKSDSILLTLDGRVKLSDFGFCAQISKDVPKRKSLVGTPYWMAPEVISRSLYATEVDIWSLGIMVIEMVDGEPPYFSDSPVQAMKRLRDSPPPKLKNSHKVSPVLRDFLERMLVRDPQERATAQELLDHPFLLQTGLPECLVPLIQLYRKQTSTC
UniProt P19022: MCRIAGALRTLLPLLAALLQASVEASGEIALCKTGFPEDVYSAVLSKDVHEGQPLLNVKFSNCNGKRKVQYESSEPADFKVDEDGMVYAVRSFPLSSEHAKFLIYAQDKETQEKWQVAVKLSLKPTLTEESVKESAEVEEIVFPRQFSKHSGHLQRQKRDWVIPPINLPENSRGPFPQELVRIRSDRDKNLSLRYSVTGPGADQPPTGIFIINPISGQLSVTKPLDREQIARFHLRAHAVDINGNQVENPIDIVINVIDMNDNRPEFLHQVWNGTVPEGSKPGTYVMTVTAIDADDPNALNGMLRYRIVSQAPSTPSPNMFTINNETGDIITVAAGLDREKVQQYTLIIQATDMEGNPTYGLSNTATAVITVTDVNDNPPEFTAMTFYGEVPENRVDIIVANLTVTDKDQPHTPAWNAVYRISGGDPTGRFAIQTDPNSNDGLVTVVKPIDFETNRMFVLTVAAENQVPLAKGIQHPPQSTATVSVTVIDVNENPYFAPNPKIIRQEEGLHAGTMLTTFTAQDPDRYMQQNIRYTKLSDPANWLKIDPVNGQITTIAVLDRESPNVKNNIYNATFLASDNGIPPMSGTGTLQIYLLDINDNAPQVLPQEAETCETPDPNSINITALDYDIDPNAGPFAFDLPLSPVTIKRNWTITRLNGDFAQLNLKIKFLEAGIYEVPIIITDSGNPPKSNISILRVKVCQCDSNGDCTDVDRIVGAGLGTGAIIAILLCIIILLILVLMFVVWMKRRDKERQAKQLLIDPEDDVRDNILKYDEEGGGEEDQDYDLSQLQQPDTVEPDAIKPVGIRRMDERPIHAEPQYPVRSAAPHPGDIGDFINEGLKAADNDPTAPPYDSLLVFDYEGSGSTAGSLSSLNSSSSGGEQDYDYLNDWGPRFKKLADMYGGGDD
UniProt P35222: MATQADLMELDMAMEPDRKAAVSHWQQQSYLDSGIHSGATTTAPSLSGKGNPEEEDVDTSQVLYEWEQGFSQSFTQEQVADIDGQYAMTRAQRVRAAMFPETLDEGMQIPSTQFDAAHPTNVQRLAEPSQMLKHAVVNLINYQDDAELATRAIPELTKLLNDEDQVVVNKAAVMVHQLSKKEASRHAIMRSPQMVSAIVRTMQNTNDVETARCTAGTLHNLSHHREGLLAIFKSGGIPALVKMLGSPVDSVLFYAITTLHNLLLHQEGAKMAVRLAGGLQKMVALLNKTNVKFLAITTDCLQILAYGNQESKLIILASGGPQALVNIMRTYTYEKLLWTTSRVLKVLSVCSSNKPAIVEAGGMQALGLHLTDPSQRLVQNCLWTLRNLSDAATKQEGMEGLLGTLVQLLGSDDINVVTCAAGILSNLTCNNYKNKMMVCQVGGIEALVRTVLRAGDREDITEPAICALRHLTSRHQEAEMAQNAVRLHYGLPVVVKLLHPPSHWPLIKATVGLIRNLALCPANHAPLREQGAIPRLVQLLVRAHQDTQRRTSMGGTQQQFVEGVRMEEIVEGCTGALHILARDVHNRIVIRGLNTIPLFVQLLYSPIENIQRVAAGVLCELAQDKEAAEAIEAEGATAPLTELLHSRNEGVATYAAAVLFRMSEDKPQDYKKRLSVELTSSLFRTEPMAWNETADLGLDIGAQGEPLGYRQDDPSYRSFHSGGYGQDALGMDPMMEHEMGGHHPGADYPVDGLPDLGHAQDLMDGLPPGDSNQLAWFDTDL

No constants are given. Whether binding was seen depends on the method and setting. In cells and extracts the contact can be indirect. Here binding means that the protein was enriched with, or labelled near, the bait; the list need not be complete. For some assays here: A no says only that the protein was not detected with the bait.

With E-cadherin (from UniProt P12830), the binding result (in test [1]; in the test with PAK4-BirA*-GFP (human) [2]) was “no binding” throughout.
For the substance “PAK6 (from UniProt Q9NQU5 1-681) (enzyme)”, the binding entry with PAK4-BirA*-GFP (human) [3] is given as “binds”.
For the substance N-cadherin (from UniProt P19022), the binding entry with PAK4-BirA*-GFP (human) [2] is reported as “no binding”.
For the substance β-catenin (from UniProt P35222 1-781), the binding entry with PAK4-BirA*-GFP (human) [2] is listed as “no binding”.
